Laboratory results as given in publication doi:10.1101/2025.05.23.655724.

Molecular target: C-terminally Myc-FLAG-tagged murine dermokine β (mouse)
Assay: affinity purification with mass spectrometry

- binding: binds
B1: wildtype (wt) murine meprin α (enzyme, UniProt P28825 65-747)
chain: NAMRDPSSRWKLPIPYILADNLELNAKGAILHAFEMFRLKSCVDFKPYEGESSYIIFQKLSGCWSMIGDQQVGQNISIGEGCDFKATIEHEILHALGFFHEQSRTDRDDYVNIWWDQIITDYEHNFNTYDDNTITDLNTPYDYESLMHYGPFSFNKNESIPTITTKIPEFNTIIGQLPDFSAIDLIRLNRMYNCTATHTLLDHCDFEKTNVCGMIQGTRDDADWAHGDSSQPEQVDHTLVGQCKGAGYFMFFNTSLGARGEAALLESRILYPKRKQQCLQFFYKMTGSPADRFEVWVRRDDNAGKVRQLAKIQTFQGDSDHNWKIAHVTLNEEKKFRYVFLGTKGDPGNSSGGIYLDDITLTETPCPAGVWTIRNISQILENTVKGDKLVSPRFYNSEGYGVGVTLYPNGRITSNSGFLGLTFHLYSGDNDAILEWPVENRQAIMTILDQEADTRNRMSLTLMFTTSKNQTSSAINGSVIWDRPSKVGVYDKDCDCFRSLDWGWGQAISHQLLKRRNFLKGDSLIIFVDFKDLTHLNRTEVPASARSTMPRGLLLQGQESPALGESSRKAMLEESLPSSLGQRHPSRQKRSVENTGPMEDHNWPQYFRDPCDPNPCQNEGTCVNVKGMASCRCVSGHAFFYAGERCQAMHVHGSLLGLLIGCIAGLIFLTFVTFSTTNGKLRQ

These are yes or no findings as the source states them, for the method shown. In cells and extracts the contact can be indirect. A yes stands for co-enrichment or nearness to the bait. Other partners may have been found.
